Measured values taken from article PMC6734327 (Heliyon, 2019).

How the values were obtained:
[1] = test system: HepG2 (human hepatocellular carcinoma); test: Cytotoxic assay, alamar blue, HepG2; format: cell-based; conditions: HepG2, 72 h, read-out: IC50 HepG2
In short: (§1)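 Cells from ATCC, mycoplasma-negative, grown in RPMI 1640 with 10% FBS at 37 °C and 5% CO2. Seeded at 0.7 × 10^5 cells/mL (adherent) or 0.3 × 10^6 cells/mL (suspension), then pre-incubated for 24 h. Test compound in DMSO added for 72 h; doxorubicin was the positive control and DMSO the vehicle control. Resazurin stock (0.312 mg/mL) added 4 h before the end. Absorbance read at 570/595 nm. IC50 taken from non-linear regression of % inhibition versus log concentration.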

[2] = test system: MCF-7 (human breast adenocarcinoma); test: Cytotoxic assay, alamar blue, MCF-7; format: cell-based; conditions: MCF7, 72 h, read-out: IC50 MCF-7
In short: as §1

COc1cccc2c1C(=O)c1c(O)c3c(c(O)c1C2=O)C[C@@](O)(C(=O)CO)C[C@@H]3O[C@H]1C[C@H](N)[C@H](O)[C@H](C)O1 [Doxorubicin]
IC50 [1]: 200 nM
IC50 [2]: 1900 nM
